From patent US20080221213A1, “Tablets Comprising a High Load of Strontium” (OSTEOLOGIX A/S SYMBION SCIENCE PARK, priority 2005, published 2008)
At least one structure is not confirmed: it was looked up by name or label, or the drawing left a doubt.

Assay: Single oral dose pharmacokinetic study in humans (healthy male volunteers), serum strontium by ICP-MS
Details: 1.2 g single oral dose, AUC5 week, human

O=C([O-])CC(=O)[O-].[Sr+2] [strontium malonate]
Bioavailability compared with 2.0 g of strontium ranelate: slightly higher bioavailability
